{"source": "paper PMC8384837", "details_in_all_cases": "yeast three-hybrid, YBZ-1, SC-Leu-His + 0.5 mM 3-AT, 4 days", "key": {"[1]": {"target": "T1, PUM1 PUF domain R1-QFR R2-VFQ R6-SWD S863Q + R864F + Q867R + N899V + Y900F + N1043S + Y1044W + Q1047D (UniProt Q14671)", "T1 sequence": "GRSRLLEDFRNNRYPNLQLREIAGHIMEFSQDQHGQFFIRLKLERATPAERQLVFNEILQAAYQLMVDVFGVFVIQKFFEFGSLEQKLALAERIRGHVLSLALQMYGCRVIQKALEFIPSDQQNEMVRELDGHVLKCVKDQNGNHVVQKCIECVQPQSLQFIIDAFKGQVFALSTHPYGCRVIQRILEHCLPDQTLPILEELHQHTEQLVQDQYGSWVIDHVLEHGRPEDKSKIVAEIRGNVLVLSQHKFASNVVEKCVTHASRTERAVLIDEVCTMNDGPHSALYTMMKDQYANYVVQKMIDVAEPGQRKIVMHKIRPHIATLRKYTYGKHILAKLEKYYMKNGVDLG"}, "[2]": {"target": "T2, PUM1 PUF domain R3-THE R4-TFR C935T + R936H + Q939E + N971T + H972F + Q975R (UniProt Q14671)", "T2 sequence": "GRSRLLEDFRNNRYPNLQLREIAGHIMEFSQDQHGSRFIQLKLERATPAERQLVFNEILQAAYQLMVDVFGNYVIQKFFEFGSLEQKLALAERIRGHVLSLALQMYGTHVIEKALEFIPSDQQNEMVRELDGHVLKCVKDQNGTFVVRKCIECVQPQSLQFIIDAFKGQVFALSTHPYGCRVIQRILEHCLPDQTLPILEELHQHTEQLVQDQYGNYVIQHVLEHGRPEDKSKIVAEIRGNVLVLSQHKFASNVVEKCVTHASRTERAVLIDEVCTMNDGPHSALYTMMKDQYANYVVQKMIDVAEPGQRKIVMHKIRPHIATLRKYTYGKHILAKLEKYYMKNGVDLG"}, "[3]": {"target": "T3, PUM1 PUF domain R5-PHQ R6-SWD C1007P + R1008H + N1043S + Y1044W + Q1047D (UniProt Q14671)", "T3 sequence": "T1 sequence with Q36S, F37R, R40Q, V72N, F73Y, C180P, R181H"}, "[4]": {"target": "T4, PUM1 PUF domain R1-QFR R2-VFQ R7-NPG S863Q + R864F + Q867R + N899V + Y900F + S1079N + N1080P + E1083G (UniProt Q14671)", "T4 sequence": "T1 sequence with S216N, W217Y, D220Q, S252N, N253P, E256G"}, "[5]": {"target": "T5, PUM1 PUF domain R2-VFQ R3-THE R4-TFR N899V + Y900F + C935T + R936H + Q939E + N971T + H972F + Q975R (UniProt Q14671)", "T5 sequence": "T2 sequence with N72V, Y73F"}, "[6]": {"target": "T6, PUM1 PUF domain R1-QFR R2-VFQ R7-NPG S863Q + R864F + Q867R + N899V + Y900F + S1079N + N1080P + E1083G (Homo sapiens) (UniProt Q14671)", "T6 sequence": "T1 sequence with S216N, W217Y, D220Q, S252N, N253P, E256G"}, "[7]": {"target": "T7, PUM1 PUF domain R3-THE R4-TFR R7-NPG C935T + R936H + Q939E + N971T + H972F + Q975R + S1079N + N1080P + E1083G (Homo sapiens) (UniProt Q14671)", "T7 sequence": "T2 sequence with S252N, N253P, E256G"}, "[8]": {"target": "T8, PUM1 PUF domain R6-SWD R7-NPG N1043S + Y1044W + Q1047D + S1079N + N1080P + E1083G (Homo sapiens) (UniProt Q14671)", "T8 sequence": "T1 sequence with Q36S, F37R, R40Q, V72N, F73Y, S252N, N253P, E256G"}, "[9]": {"target": "T9, PUM1 PUF domain R3-THE R4-TFR R7-NPG C935T + R936H + Q939E + N971T + H972F + Q975R + S1079N + N1080P + E1083G (UniProt Q14671)", "T9 sequence": "T2 sequence with S252N, N253P, E256G"}}, "note": "Changes are numbered by the printed parent chain. This is one part of the list. For some of these results: At the low end of the ranking, values are background and their order means little. For some of these results: The source does not settle which construct or isoform was used."}
{"sequence": "GGCUAGAACUAGUGGAUCCCCCGGCGCCCGGCGGCUCGAGCCCGGGUAAGUUGACAUUGUCUGCAUGCCGCCGGGCGCCAUGCCUGCAGGUCGACUCUAGAAAACAUG", "values": [{"measurement": "binding signal (log2 enrichment (interaction score))", "setting": "[1]", "value": -6.37}, {"measurement": "binding signal (log2 enrichment (interaction score))", "setting": "[2]", "value": "< -7.64"}, {"measurement": "binding signal (log2 enrichment (interaction score))", "setting": "[3]", "value": -6.65}]}
{"sequence": "GGCUAGAACUAGUGGAUCCCCCGGCGCCCGGCGGCUCGAGCCCGGGUAAGCUUAAGGAGUCUGCAUGCCGCCGGGCGCCAUGCCUGCAGGUCGACUCUAGAAAACAUG", "values": [{"measurement": "binding signal (log2 enrichment (interaction score))", "setting": "[4]", "value": -4.72}]}
{"sequence": "GGCUAGAACUAGUGGAUCCCCCGGCGCCCGGCGGCUCGAGCCCGGGUAAGUACCCUAAGUCUGCAUGCCGCCGGGCGCCAUGCCUGCAGGUCGACUCUAGAAAACAUG", "values": [{"measurement": "binding signal (log2 enrichment (interaction score))", "setting": "[4]", "value": -6.04}]}
{"sequence": "GGCUAGAACUAGUGGAUCCCCCGGCGCCCGGCGGCUCGAGCCCGGGUAAGUUGCUAUAGUCUGCAUGCCGCCGGGCGCCAUGCCUGCAGGUCGACUCUAGAAAACAUG", "values": [{"measurement": "binding signal (log2 enrichment (interaction score))", "setting": "[1]", "value": -6.33}, {"measurement": "binding signal (log2 enrichment (interaction score))", "setting": "[5]", "value": -5.65}, {"measurement": "binding signal (log2 enrichment (interaction score))", "setting": "[3]", "value": -7.82}]}
{"sequence": "GGCUAGAACUAGUGGAUCCCCCGGCGCCCGGCGGCUCGAGCCCGGGUAAGUUAAUAGGGUCUGCAUGCCGCCGGGCGCCAUGCCUGCAGGUCGACUCUAGAAAACAUG", "values": [{"measurement": "binding signal (log2 enrichment (interaction score))", "setting": "[4]", "value": "< -5.48"}]}
{"sequence": "GGCUAGAACUAGUGGAUCCCCCGGCGCCCGGCGGCUCGAGCCCGGGUAAGCUCAAGUCGUCUGCAUGCCGCCGGGCGCCAUGCCUGCAGGUCGACUCUAGAAAACAUG", "values": [{"measurement": "binding signal (log2 enrichment (interaction score))", "setting": "[4]", "value": -5.3}]}
{"sequence": "GGCUAGAACUAGUGGAUCCCCCGGCGCCCGGCGGCUCGAGCCCGGGUAAGGUGACACCGUCUGCAUGCCGCCGGGCGCCAUGCCUGCAGGUCGACUCUAGAAAACAUG", "values": [{"measurement": "binding signal (log2 enrichment (interaction score))", "setting": "[4]", "value": "< -3.33"}]}
{"sequence": "GGCUAGAACUAGUGGAUCCCCCGGCGCCCGGCGGCUCGAGCCCGGGUAAGGGGCAAAAGUCUGCAUGCCGCCGGGCGCCAUGCCUGCAGGUCGACUCUAGAAAACAUG", "values": [{"measurement": "binding signal (log2 enrichment (interaction score))", "setting": "[1]", "value": -6.43}, {"measurement": "binding signal (log2 enrichment (interaction score))", "setting": "[3]", "value": "< -8.13"}]}
{"sequence": "GGCUAGAACUAGUGGAUCCCCCGGCGCCCGGCGGCUCGAGCCCGGGUAAGUUGCGAAAGUCUGCAUGCCGCCGGGCGCCAUGCCUGCAGGUCGACUCUAGAAAACAUG", "values": [{"measurement": "binding signal (log2 enrichment (interaction score))", "setting": "[6]", "value": -0.55}, {"measurement": "binding signal (log2 enrichment (interaction score))", "setting": "[3]", "value": "< -8.45"}]}
{"sequence": "GGCUAGAACUAGUGGAUCCCCCGGCGCCCGGCGGCUCGAGCCCGGGUAAGUCCUAAUCGUCUGCAUGCCGCCGGGCGCCAUGCCUGCAGGUCGACUCUAGAAAACAUG", "values": [{"measurement": "binding signal (log2 enrichment (interaction score))", "setting": "[4]", "value": -5.63}]}
{"sequence": "GGCUAGAACUAGUGGAUCCCCCGGCGCCCGGCGGCUCGAGCCCGGGUAAGUUAACGGUGUCUGCAUGCCGCCGGGCGCCAUGCCUGCAGGUCGACUCUAGAAAACAUG", "values": [{"measurement": "binding signal (log2 enrichment (interaction score))", "setting": "[6]", "value": -0.84}, {"measurement": "binding signal (log2 enrichment (interaction score))", "setting": "[2]", "value": "< -7.65"}]}
{"sequence": "GGCUAGAACUAGUGGAUCCCCCGGCGCCCGGCGGCUCGAGCCCGGGUAAGAGUGAAUAGUCUGCAUGCCGCCGGGCGCCAUGCCUGCAGGUCGACUCUAGAAAACAUG", "values": [{"measurement": "binding signal (log2 enrichment (interaction score))", "setting": "[1]", "value": -7.04}, {"measurement": "binding signal (log2 enrichment (interaction score))", "setting": "[7]", "value": -0.81}]}
{"sequence": "GGCUAGAACUAGUGGAUCCCCCGGCGCCCGGCGGCUCGAGCCCGGGUAAGUUUAGAACGUCUGCAUGCCGCCGGGCGCCAUGCCUGCAGGUCGACUCUAGAAAACAUG", "values": [{"measurement": "binding signal (log2 enrichment (interaction score))", "setting": "[6]", "value": -0.99}, {"measurement": "binding signal (log2 enrichment (interaction score))", "setting": "[7]", "value": -1.51}, {"measurement": "binding signal (log2 enrichment (interaction score))", "setting": "[8]", "value": -0.99}]}
{"sequence": "GGCUAGAACUAGUGGAUCCCCCGGCGCCCGGCGGCUCGAGCCCGGGUAAGACUAAUAUGUCUGCAUGCCGCCGGGCGCCAUGCCUGCAGGUCGACUCUAGAAAACAUG", "values": [{"measurement": "binding signal (log2 enrichment (interaction score))", "setting": "[4]", "value": -3.02}]}
{"sequence": "GGCUAGAACUAGUGGAUCCCCCGGCGCCCGGCGGCUCGAGCCCGGGUAAGUGGAAAAUGUCUGCAUGCCGCCGGGCGCCAUGCCUGCAGGUCGACUCUAGAAAACAUG", "values": [{"measurement": "binding signal (log2 enrichment (interaction score))", "setting": "[4]", "value": "< -5.74"}]}
{"sequence": "GGCUAGAACUAGUGGAUCCCCCGGCGCCCGGCGGCUCGAGCCCGGGUAAGUUAGAUCCGUCUGCAUGCCGCCGGGCGCCAUGCCUGCAGGUCGACUCUAGAAAACAUG", "values": [{"measurement": "binding signal (log2 enrichment (interaction score))", "setting": "[6]", "value": -0.89}]}
{"sequence": "GGCUAGAACUAGUGGAUCCCCCGGCGCCCGGCGGCUCGAGCCCGGGUAAGUUCAAUGCGUCUGCAUGCCGCCGGGCGCCAUGCCUGCAGGUCGACUCUAGAAAACAUG", "values": [{"measurement": "binding signal (log2 enrichment (interaction score))", "setting": "[4]", "value": "< -5.52"}]}
{"sequence": "GGCUAGAACUAGUGGAUCCCCCGGCGCCCGGCGGCUCGAGCCCGGGUAAGUGAAGGUAGUCUGCAUGCCGCCGGGCGCCAUGCCUGCAGGUCGACUCUAGAAAACAUG", "values": [{"measurement": "binding signal (log2 enrichment (interaction score))", "setting": "[4]", "value": "< -5.89"}]}
{"sequence": "GGCUAGAACUAGUGGAUCCCCCGGCGCCCGGCGGCUCGAGCCCGGGUAAGGUGACUUGGUCUGCAUGCCGCCGGGCGCCAUGCCUGCAGGUCGACUCUAGAAAACAUG", "values": [{"measurement": "binding signal (log2 enrichment (interaction score))", "setting": "[1]", "value": -6.3}, {"measurement": "binding signal (log2 enrichment (interaction score))", "setting": "[5]", "value": "< -5.46"}, {"measurement": "binding signal (log2 enrichment (interaction score))", "setting": "[9]", "value": "< -3.26"}]}
{"sequence": "GGCUAGAACUAGUGGAUCCCCCGGCGCCCGGCGGCUCGAGCCCGGGUAAGUUCACAAAGUCUGCAUGCCGCCGGGCGCCAUGCCUGCAGGUCGACUCUAGAAAACAUG", "values": [{"measurement": "binding signal (log2 enrichment (interaction score))", "setting": "[4]", "value": -6.31}]}
{"sequence": "GGCUAGAACUAGUGGAUCCCCCGGCGCCCGGCGGCUCGAGCCCGGGUAAGCUAGAUAAGUCUGCAUGCCGCCGGGCGCCAUGCCUGCAGGUCGACUCUAGAAAACAUG", "values": [{"measurement": "binding signal (log2 enrichment (interaction score))", "setting": "[1]", "value": -6.17}, {"measurement": "binding signal (log2 enrichment (interaction score))", "setting": "[9]", "value": -2.12}]}
{"sequence": "GGCUAGAACUAGUGGAUCCCCCGGCGCCCGGCGGCUCGAGCCCGGGUAAGUUCCAGCAGUCUGCAUGCCGCCGGGCGCCAUGCCUGCAGGUCGACUCUAGAAAACAUG", "values": [{"measurement": "binding signal (log2 enrichment (interaction score))", "setting": "[1]", "value": -3.93}, {"measurement": "binding signal (log2 enrichment (interaction score))", "setting": "[7]", "value": "< -1.18"}]}
{"sequence": "GGCUAGAACUAGUGGAUCCCCCGGCGCCCGGCGGCUCGAGCCCGGGUAAGUGAACGGCGUCUGCAUGCCGCCGGGCGCCAUGCCUGCAGGUCGACUCUAGAAAACAUG", "values": [{"measurement": "binding signal (log2 enrichment (interaction score))", "setting": "[6]", "value": 4.1}]}
